From the supplement of paper PMC10849652
Some of the results follow.

Amino acid sequences for entries named in this document (tags omitted). A change or cut given only in a name is not applied to a line headed by its entry.
UniProt Q9Y3B4: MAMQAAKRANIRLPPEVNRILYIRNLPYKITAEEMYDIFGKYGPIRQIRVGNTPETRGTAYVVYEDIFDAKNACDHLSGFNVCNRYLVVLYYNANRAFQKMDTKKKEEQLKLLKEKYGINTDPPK
UniProt Q96EB6: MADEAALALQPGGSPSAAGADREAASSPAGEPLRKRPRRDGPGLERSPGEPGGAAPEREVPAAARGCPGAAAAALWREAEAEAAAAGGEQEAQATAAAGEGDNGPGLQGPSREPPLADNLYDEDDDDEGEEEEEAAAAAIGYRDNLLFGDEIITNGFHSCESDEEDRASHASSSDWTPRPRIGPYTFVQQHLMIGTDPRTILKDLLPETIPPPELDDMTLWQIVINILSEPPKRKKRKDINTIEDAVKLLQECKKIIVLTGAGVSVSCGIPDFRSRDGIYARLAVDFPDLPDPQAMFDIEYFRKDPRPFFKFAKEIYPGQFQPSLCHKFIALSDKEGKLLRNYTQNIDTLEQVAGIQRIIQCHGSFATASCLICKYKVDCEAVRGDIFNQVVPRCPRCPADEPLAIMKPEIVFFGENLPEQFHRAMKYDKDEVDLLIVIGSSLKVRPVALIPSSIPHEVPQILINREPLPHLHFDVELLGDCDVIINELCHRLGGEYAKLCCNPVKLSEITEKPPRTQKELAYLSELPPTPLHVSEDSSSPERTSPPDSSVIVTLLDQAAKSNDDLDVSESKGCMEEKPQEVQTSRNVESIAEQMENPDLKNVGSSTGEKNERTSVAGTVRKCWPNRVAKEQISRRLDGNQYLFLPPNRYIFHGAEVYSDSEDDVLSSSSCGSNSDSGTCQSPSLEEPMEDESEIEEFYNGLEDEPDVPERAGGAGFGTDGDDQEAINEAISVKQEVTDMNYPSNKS
UniProt Q9NR46: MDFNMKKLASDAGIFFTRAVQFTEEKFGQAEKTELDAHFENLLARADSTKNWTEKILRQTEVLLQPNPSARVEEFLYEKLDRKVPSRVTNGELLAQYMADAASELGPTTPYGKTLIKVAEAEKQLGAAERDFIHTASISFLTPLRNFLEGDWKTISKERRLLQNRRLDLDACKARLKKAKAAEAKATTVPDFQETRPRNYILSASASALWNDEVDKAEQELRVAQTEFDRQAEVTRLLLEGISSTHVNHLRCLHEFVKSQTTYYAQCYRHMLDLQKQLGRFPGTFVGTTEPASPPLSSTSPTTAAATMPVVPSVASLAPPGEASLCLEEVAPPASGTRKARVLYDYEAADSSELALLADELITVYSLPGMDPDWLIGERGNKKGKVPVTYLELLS
UniProt Q7L8J4: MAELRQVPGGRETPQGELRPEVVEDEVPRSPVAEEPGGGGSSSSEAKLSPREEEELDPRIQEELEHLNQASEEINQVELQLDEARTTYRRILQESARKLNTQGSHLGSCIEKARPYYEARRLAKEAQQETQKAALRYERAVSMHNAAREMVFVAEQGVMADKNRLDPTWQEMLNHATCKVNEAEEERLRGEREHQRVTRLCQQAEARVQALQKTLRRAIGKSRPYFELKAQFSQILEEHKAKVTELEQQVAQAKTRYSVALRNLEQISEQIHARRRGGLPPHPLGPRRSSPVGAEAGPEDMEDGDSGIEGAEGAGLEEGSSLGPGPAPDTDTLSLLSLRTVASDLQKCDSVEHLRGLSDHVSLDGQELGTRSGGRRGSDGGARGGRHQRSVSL
UniProt P58004: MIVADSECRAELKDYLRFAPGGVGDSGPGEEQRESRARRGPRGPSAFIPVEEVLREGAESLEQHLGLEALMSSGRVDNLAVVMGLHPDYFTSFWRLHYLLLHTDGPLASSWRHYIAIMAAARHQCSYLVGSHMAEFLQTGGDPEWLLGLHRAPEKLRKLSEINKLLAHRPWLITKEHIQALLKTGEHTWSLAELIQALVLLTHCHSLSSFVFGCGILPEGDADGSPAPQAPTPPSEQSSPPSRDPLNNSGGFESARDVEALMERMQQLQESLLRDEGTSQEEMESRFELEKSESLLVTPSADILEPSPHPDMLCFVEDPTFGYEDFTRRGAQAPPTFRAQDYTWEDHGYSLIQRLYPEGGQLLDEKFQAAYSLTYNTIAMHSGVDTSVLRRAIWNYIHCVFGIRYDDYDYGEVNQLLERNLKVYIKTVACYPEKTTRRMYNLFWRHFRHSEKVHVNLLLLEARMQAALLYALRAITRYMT
UniProt O95470: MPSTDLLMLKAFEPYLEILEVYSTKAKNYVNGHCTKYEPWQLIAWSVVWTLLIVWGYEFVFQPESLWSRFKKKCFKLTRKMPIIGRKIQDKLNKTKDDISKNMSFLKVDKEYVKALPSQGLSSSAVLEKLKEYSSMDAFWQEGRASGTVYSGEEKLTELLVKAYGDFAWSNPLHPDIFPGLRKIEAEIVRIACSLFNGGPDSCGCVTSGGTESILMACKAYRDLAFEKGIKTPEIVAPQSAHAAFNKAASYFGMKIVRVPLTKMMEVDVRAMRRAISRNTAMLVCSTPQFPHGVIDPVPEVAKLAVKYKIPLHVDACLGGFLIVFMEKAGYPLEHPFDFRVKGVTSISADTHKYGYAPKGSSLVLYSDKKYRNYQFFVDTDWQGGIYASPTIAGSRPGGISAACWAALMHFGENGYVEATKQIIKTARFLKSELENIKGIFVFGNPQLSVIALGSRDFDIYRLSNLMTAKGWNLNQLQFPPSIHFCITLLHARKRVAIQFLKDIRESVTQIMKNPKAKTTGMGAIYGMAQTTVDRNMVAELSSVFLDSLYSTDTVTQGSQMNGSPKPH
UniProt Q13530: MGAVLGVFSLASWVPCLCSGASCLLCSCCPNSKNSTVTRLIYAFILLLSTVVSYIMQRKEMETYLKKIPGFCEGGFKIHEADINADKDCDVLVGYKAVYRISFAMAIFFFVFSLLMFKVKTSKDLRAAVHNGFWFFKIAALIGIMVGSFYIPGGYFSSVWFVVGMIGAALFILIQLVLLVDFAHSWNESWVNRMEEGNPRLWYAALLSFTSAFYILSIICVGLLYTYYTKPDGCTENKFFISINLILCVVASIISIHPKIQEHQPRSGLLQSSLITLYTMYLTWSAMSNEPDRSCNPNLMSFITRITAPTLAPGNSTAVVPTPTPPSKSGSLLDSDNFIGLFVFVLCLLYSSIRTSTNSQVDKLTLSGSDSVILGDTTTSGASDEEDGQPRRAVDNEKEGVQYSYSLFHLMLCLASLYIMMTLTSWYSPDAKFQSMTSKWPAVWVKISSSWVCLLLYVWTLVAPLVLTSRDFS
UniProt Q96NB2: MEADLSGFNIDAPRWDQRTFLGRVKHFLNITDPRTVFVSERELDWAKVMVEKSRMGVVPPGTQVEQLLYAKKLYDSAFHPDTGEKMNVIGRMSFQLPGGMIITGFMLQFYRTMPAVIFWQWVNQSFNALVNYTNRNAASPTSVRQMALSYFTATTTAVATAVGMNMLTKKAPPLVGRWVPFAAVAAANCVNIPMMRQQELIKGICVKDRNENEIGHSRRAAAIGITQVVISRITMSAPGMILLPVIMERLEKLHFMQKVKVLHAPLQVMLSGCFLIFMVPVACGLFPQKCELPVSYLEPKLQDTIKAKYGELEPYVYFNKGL
UniProt Q99611, whole entry, looked up: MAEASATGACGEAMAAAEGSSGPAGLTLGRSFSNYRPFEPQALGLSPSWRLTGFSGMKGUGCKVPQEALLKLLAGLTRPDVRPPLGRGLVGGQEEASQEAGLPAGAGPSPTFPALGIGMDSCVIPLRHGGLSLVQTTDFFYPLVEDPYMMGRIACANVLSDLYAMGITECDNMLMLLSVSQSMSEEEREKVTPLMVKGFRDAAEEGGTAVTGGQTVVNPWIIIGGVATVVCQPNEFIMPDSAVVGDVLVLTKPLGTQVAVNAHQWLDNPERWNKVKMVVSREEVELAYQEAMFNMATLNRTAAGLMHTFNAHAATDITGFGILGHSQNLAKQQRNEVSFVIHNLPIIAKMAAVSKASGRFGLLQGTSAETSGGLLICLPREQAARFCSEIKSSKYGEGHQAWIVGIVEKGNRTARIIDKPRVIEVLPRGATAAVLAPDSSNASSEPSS
UniProt P23246: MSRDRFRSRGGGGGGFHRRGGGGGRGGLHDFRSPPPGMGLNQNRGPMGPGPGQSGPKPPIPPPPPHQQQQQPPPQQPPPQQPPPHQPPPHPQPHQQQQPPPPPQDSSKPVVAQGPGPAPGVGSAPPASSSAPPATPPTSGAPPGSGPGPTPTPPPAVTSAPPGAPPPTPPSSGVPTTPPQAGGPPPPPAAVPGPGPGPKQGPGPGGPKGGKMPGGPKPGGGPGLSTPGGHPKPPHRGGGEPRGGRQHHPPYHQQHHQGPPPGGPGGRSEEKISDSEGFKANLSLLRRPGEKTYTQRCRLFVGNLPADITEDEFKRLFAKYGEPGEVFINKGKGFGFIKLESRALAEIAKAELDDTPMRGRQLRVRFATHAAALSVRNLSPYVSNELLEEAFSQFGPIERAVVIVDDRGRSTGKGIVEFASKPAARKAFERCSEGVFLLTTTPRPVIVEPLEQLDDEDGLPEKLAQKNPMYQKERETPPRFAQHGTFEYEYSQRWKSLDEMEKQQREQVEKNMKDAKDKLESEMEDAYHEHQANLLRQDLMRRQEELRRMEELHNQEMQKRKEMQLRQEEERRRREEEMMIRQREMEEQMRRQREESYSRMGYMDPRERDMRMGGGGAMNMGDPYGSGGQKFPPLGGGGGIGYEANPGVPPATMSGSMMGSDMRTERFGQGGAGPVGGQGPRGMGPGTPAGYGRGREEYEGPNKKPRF
UniProt Q9NXA8: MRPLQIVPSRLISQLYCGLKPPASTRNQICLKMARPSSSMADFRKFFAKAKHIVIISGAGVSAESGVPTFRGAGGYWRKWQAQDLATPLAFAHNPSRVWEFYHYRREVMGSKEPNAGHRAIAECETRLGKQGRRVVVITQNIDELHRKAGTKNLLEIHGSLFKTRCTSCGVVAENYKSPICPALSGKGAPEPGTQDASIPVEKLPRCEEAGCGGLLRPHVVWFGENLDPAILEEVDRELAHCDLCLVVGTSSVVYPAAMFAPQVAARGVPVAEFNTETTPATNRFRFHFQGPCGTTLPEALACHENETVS
UniProt O95562: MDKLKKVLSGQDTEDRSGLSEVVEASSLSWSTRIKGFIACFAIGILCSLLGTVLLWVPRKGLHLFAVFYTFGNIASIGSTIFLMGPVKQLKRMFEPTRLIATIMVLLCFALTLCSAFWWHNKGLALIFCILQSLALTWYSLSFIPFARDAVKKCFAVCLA
UniProt P30740: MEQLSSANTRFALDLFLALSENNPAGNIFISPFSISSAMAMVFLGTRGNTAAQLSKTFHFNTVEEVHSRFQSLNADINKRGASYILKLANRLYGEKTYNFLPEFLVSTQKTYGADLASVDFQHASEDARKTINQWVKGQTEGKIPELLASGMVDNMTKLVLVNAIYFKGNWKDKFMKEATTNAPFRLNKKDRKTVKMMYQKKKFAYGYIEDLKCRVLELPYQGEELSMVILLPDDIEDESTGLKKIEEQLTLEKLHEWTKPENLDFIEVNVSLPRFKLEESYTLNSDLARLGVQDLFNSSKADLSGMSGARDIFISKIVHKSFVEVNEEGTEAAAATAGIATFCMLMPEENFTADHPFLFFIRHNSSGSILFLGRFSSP
UniProt P84101: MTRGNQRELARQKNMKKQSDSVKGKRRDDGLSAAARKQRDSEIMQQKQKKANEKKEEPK
UniProt P62341, whole entry, looked up: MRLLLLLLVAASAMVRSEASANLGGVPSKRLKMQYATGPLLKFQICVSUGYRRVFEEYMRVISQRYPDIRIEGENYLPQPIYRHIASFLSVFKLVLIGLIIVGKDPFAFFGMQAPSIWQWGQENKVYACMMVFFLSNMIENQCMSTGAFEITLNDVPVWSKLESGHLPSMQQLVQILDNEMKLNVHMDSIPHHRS
UniProt Q8N196: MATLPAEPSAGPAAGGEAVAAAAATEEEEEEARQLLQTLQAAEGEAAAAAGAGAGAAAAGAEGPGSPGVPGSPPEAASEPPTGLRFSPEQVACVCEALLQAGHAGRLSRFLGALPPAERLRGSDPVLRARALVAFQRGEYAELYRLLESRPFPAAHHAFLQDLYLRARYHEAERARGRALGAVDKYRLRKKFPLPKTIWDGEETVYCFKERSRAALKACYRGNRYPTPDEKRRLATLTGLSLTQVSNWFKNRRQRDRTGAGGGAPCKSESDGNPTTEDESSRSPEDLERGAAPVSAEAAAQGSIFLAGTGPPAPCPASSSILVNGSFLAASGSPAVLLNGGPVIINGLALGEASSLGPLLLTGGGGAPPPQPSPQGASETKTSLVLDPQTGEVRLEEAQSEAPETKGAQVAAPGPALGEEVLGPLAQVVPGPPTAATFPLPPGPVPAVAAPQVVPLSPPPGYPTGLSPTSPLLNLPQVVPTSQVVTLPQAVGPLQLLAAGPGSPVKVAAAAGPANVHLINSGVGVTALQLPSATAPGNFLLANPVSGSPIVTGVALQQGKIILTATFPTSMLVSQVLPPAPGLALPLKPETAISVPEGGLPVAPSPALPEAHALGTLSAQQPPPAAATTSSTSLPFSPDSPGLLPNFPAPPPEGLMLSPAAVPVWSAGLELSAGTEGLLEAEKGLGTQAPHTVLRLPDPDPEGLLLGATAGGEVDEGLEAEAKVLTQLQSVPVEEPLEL

Assays:
Experiment in all cases: log2 fold change, soluble protein after heating vs DMSO (PISA); higher = thermal stabilisation; K562 cells, 10 uM, 30 min; active = over 0.2 and 3.5 SD of the protein, either way, in both replicates (recomputed)
bafetinib = compound: Cc1ccc(NC(=O)c2ccc(CN3CC[C@H](N(C)C)C3)c(C(F)(F)F)c2)cc1Nc1nccc(-c2cncnc2)n1 [bafetinib]
In short: (§1)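 K562 cells at 2×10^6 cells/mL were exposed to 10 μM compound for 30 min, then aliquots were heated for 3 min across 48°C-58°C, pooled, and extracted in PBS containing 0.5% NP-40 at 4°C. The supernatant after 21,000xg for 90 min was taken as soluble protein and measured by TMTpro 16plex LC-MS/MS with channel sums equalised. Thermal stability is reported relative to control samples, with values from duplicates. Fold changes are given on a log2 scale.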

[1] = compound: Cc1cccc(CC(=O)N2CCc3c2ccc(-c2cn(C)c4ncnc(N)c24)c3F)n1
In short: as §1

nilotinib = compound: Cc1cn(-c2cc(NC(=O)c3ccc(C)c(Nc4nccc(-c5cccnc5)n4)c3)cc(C(F)(F)F)c2)cn1 [nilotinib]
In short: as §1

[2] = compound: Cc1nc(Nc2n[nH]c3c2CN(C(=O)N[C@H](CN(C)C)c2ccccc2)C3(C)C)c2sccc2n1
In short: as §1

dasatinib = compound: Cc1nc(Nc2ncc(C(=O)Nc3c(C)cccc3Cl)s2)cc(N2CCN(CCO)CC2)n1 [dasatinib]
In short: as §1

[3] = compound: Cc1ncc(-c2ccnc(Nc3ccc(S(C)(=O)=O)cc3)n2)n1C(C)C
In short: as §1

[4] = compound: Cn1cc(-c2ccc3c(c2)CCN3C(=O)Cc2cccc(C(F)(F)F)c2)c2c(N)ncnc21
In short: as §1

[5] = compound: Cn1cc(-c2ccc3nnc(C(F)(F)c4ccc5ncccc5c4)n3n2)cn1
In short: as §1

tipifarnib = compound: Cn1cncc1[C@@](N)(c1ccc(Cl)cc1)c1ccc2c(c1)c(-c1cccc(Cl)c1)cc(=O)n2C [tipifarnib]
In short: as §1

mubritinib = compound: FC(F)(F)c1ccc(/C=C/c2nc(COc3ccc(CCCCn4ccnn4)cc3)co2)cc1 [mubritinib]
In short: as §1

Measured: log2 fold change

SF3B6 (UniProt Q9Y3B4)
inactive: bafetinib 0.083 | [1] -0.027 | nilotinib 0.116 | [2] -0.049 | dasatinib 0.015 | [3] 0.038 | [4] 0.01 | [5] 0.007 | tipifarnib -0.057 | mubritinib -0.058

SIRT1 (UniProt Q96EB6)
inactive: bafetinib 0.04 | [1] 0.044 | nilotinib 0.008 | [2] -0.053 | dasatinib -0.099 | [3] 0.062 | [4] -0.013 | [5] -0.007 | tipifarnib -0.031 | mubritinib -0.009

SH3GLB2 (UniProt Q9NR46)
inactive: bafetinib -0.029 | [1] 0.044 | nilotinib -0.051 | [2] -0.15 | dasatinib -0.147 | [3] -0.066 | [4] 0.006 | [5] -0.1 | tipifarnib -0.091 | mubritinib 0.098

SERBP1 (UniProt Q8NC51)
inactive: bafetinib 0.039 | [1] -0.157 | nilotinib 0.021 | [2] 0.016 | dasatinib 0.112 | [3] 0.002 | [4] -0.047 | [5] -0.039 | tipifarnib 0.083 | mubritinib -0.046

SERPINB6, A0A087X1N8
inactive: bafetinib -0.02 | [1] 0.001 | nilotinib 0.042 | [2] -0.015 | dasatinib 0.031 | [3] 0.004 | [4] 0.01 | [5] -0.028 | tipifarnib 0.029 | mubritinib 0.019

SERPINH1 (UniProt P50454)
inactive: bafetinib -0.02 | [1] -0.003 | nilotinib -0.003 | [2] 0.024 | dasatinib 0.017 | [3] -0.01 | [4] -0.009 | [5] -0.009 | tipifarnib 0.023 | mubritinib -0.027

SH3BP5L (UniProt Q7L8J4)
inactive: bafetinib -0.01 | [1] -0.058 | nilotinib 0.036 | [2] -0.033 | dasatinib 0.125 | [3] 0.049 | [4] -0.037 | [5] -0.117 | tipifarnib -0.104 | mubritinib 0.054

SESN2 (UniProt P58004)
inactive: bafetinib -0.09 | [1] 0.136 | nilotinib -0.02 | [2] -0.207 | dasatinib -0.034 | [3] -0.063 | [4] 0.069 | [5] -0.069 | tipifarnib -0.213 | mubritinib 0.042

SELENBP1 isoform 4 (UniProt Q13228)
inactive: bafetinib 0.043 | [1] -0.011 | nilotinib 0.02 | [2] 0.001 | dasatinib 0.061 | [3] -0.003 | [4] 0.035 | [5] 0.021 | tipifarnib 0.004 | mubritinib 0.05

SEMA4C (UniProt Q9C0C4)
inactive: bafetinib -0.051 | [1] -0.037 | nilotinib -0.007 | [2] -0.038 | dasatinib 0.026 | [3] -0.075 | [4] 0.026 | [5] 0.04 | tipifarnib 0.036 | mubritinib 0.057

SGPL1 (UniProt O95470)
inactive: bafetinib 0.009 | [1] -0.013 | nilotinib 0.024 | [2] -0.017 | dasatinib 0.016 | [3] -0.029 | [4] -0.005 | [5] -0.071 | tipifarnib 0.151 | mubritinib 0.034

Taken from the entries so far (8 entries):
SIRT1 (UniProt Q96EB6)
inactive: bafetinib 0.04 | [1] 0.044 | nilotinib 0.008 | [2] -0.053 | dasatinib -0.099 | [3] 0.062 | [4] -0.013 | [5] -0.007 | tipifarnib -0.031 | mubritinib -0.009

SH3GLB2 (UniProt Q9NR46)
inactive: bafetinib -0.029 | [1] 0.044 | nilotinib -0.051 | [2] -0.15 | dasatinib -0.147 | [3] -0.066 | [4] 0.006 | [5] -0.1 | tipifarnib -0.091 | mubritinib 0.098

SERBP1 (UniProt Q8NC51)
inactive: bafetinib 0.039 | [1] -0.157 | nilotinib 0.021 | [2] 0.016 | dasatinib 0.112 | [3] 0.002 | [4] -0.047 | [5] -0.039 | tipifarnib 0.083 | mubritinib -0.046

SERPINB6, A0A087X1N8
inactive: bafetinib -0.02 | [1] 0.001 | nilotinib 0.042 | [2] -0.015 | dasatinib 0.031 | [3] 0.004 | [4] 0.01 | [5] -0.028 | tipifarnib 0.029 | mubritinib 0.019

SERPINH1 (UniProt P50454)
inactive: bafetinib -0.02 | [1] -0.003 | nilotinib -0.003 | [2] 0.024 | dasatinib 0.017 | [3] -0.01 | [4] -0.009 | [5] -0.009 | tipifarnib 0.023 | mubritinib -0.027

SH3BP5L (UniProt Q7L8J4)
inactive: bafetinib -0.01 | [1] -0.058 | nilotinib 0.036 | [2] -0.033 | dasatinib 0.125 | [3] 0.049 | [4] -0.037 | [5] -0.117 | tipifarnib -0.104 | mubritinib 0.054

SESN2 (UniProt P58004)
inactive: bafetinib -0.09 | [1] 0.136 | nilotinib -0.02 | [2] -0.207 | dasatinib -0.034 | [3] -0.063 | [4] 0.069 | [5] -0.069 | tipifarnib -0.213 | mubritinib 0.042

SELENBP1 isoform 4 (UniProt Q13228)
inactive: bafetinib 0.043 | [1] -0.011 | nilotinib 0.02 | [2] 0.001 | dasatinib 0.061 | [3] -0.003 | [4] 0.035 | [5] 0.021 | tipifarnib 0.004 | mubritinib 0.05

The list goes on.

SERINC3 (UniProt Q13530)
inactive: bafetinib -0.031 | [1] -0.035 | nilotinib 0.02 | [2] 0.039 | dasatinib -0.123 | [3] 0.07 | [4] -0.014 | [5] -0.077 | tipifarnib -0.115 | mubritinib 0.009

SFXN2 (UniProt Q96NB2)
inactive: bafetinib -0.145 | [1] -0.013 | nilotinib 0 | [2] -0.015 | dasatinib -0.029 | [3] -0.007 | [4] 0.054 | [5] 0.046 | tipifarnib 0.058 | mubritinib 0.06

SEPHS2 (UniProt Q99611)
inactive: bafetinib 0.062 | [1] 0.092 | nilotinib 0.026 | [2] -0.006 | dasatinib -0.007 | [3] -0.017 | [4] 0.054 | [5] -0.027 | tipifarnib -0.122 | mubritinib -0.006

SIPA1 (UniProt Q96FS4)
inactive: bafetinib -0.013 | [1] 0.041 | nilotinib -0.112 | [2] -0.005 | dasatinib -0.013 | [3] -0.104 | [4] 0.004 | [5] -0.022 | tipifarnib -0.043 | mubritinib 0.019

SIDT2 isoform 2 (UniProt Q8NBJ9)
inactive: bafetinib -0.24 | [1] -0.025 | nilotinib -0.005 | [2] 0.104 | dasatinib 0.041 | [3] 0.025 | [4] -0.003 | [5] 0.038 | tipifarnib 0.073 | mubritinib -0.001

SFPQ (UniProt P23246)
inactive: bafetinib 0.075 | [1] -0.051 | nilotinib -0.045 | [2] -0.093 | dasatinib 0.054 | [3] -0.035 | [4] -0.121 | [5] -0.105 | tipifarnib 0.023 | mubritinib -0.146

SIRT5 (UniProt Q9NXA8)
inactive: bafetinib 0.074 | [1] 0.027 | nilotinib 0.005 | [2] -0.026 | dasatinib 0.012 | [3] 0.016 | [4] -0.027 | [5] -0.158 | tipifarnib -0.027 | mubritinib 0.2

SHC1 isoform 6 (UniProt P29353)
inactive: bafetinib -0.011 | [1] -0.035 | nilotinib 0.084 | [2] -0.014 | dasatinib 0.033 | [3] 0.002 | [4] -0.004 | [5] -0.035 | tipifarnib -0.006 | mubritinib 0.037

SFT2D2 (UniProt O95562)
inactive: bafetinib -0.069 | [1] -0.035 | nilotinib 0.003 | [2] 0.006 | dasatinib -0.026 | [3] -0.014 | [4] 0.019 | [5] -0.001 | tipifarnib -0.134 | mubritinib 0.024

SEPTIN4 isoform 4 (UniProt O43236)
inactive: bafetinib 0.095 | [1] 0.052 | nilotinib 0.007 | [2] -0.04 | dasatinib 0.008 | [3] 0.031 | [4] 0.036 | [5] -0.044 | tipifarnib -0.055 | mubritinib 0.051

SH3BGR (UniProt P55822)
inactive: bafetinib -0.031 | [1] 0.297 | nilotinib -0.069 | [2] -0.113 | dasatinib 0.056 | [3] -0.088 | [4] 0.019 | tipifarnib 0.023 | mubritinib 0.019

SERPINB1 (UniProt P30740)
inactive: bafetinib -0.042 | [1] 0.038 | nilotinib -0.017 | [2] 0.001 | dasatinib -0.026 | [3] -0.002 | [4] 0.047 | [5] -0.02 | tipifarnib -0.027 | mubritinib 0.052

SERF2 (UniProt P84101)
inactive: bafetinib -0.083 | [1] -0.25 | nilotinib -0.035 | [2] 0.005 | dasatinib -0.13 | [3] -0.009 | [4] -0.115 | [5] 0.048 | mubritinib 0.037

SGO1 (UniProt Q5FBB7)
inactive: bafetinib -0.047 | [1] 0.1 | nilotinib 0.019 | [2] -0.052 | dasatinib 0.015 | [3] 0.004 | [4] 0.016 | [5] 0.03 | tipifarnib 0.031 | mubritinib 0.079

SELENOT (UniProt P62341)
inactive: bafetinib -0.046 | [1] -0.042 | nilotinib 0.094 | [2] -0.027 | dasatinib 0.05 | [3] 0.008 | [5] 0.088 | tipifarnib -0.057 | mubritinib 0.078

SEL1L3 (UniProt Q68CR1)
inactive: bafetinib 0 | [1] 0.034 | nilotinib 0.02 | [2] 0.051 | dasatinib 0 | [3] -0.08 | [4] -0.049 | [5] -0.031 | tipifarnib 0.198 | mubritinib -0.05

SIX5 (UniProt Q8N196)
inactive: bafetinib -0.086 | [1] -0.021 | dasatinib -0.052 | [4] 0.069 | [5] 0.05 | mubritinib 0.057
